From PubChem BioAssay AID1347423 (Functional Genomics Laboratory (NCATS/FGL), 2020)
Screen size: about 52,000 sequences; about 210 (0.4%) were called active.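 The calls were made as follows: active = gene whose silencing raises cell survival under the drug, median off-target-corrected z-score across its silencing RNAs 2 or more; inactive = the rest.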 The list shows a part of the results.

Assay: Resistance to Poly (ADP-Ribose) Polymerase inhibitor: Gene Identification via Genome-wide siRNA Screen
Settings: mouse BRCA2 R2336H ES cells, olaparib, CellTiter-Glo viability; active compounds read high
Procedure, shortened: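 Mouse BRCA2 R2336H ES cells were reverse-transfected with siRNA (20 nM final), treated at 48 h with 500 nM olaparib, and read by CellTiter-Glo after 72 h. Scores: MAD-based z per siRNA, median per gene, seed off-target correction.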
For CCCACUAAGGAACAAAUUGTT against LOC541463, the z-score was inactive: 0.132. With “GGCCUUGUAAAUUAUGCAUTT against C130068N17Rik” the z-score was inactive: 1.66. In the case of GCAGACUAAAAUCACGACATT against Ednra, the z-score is reported as inactive: 0.0416. In the case of GGAGACCCACUACAUGACUTT against H2-M2, the z-score is reported as inactive: -0.484. For GCAGAAGUGAUUGAUACACTT against Hars, the z-score was inactive: 1.07. With “GGAUGGAGAGAACUACUUATT against C730027E14Rik” the z-score was inactive: 0.579. For GGCAGUCAGCUAAUGCUUATT against Pros1, the z-score was inactive: 1.76. With GCUGUUUAUAUUUCUUGCUTT against Olfr1393 the z-score was inactive: 1.09. In the case of GGAGAACUCCUACAUGUCUTT against Irak1, the z-score is reported as inactive: 1.94. With “GCAGGAUCCUGAAACCAUGTT against E130306I01Rik” the z-score was inactive: -0.00862. With GCAGAUCUUGACUUGUCCATT against Orc6l the z-score was inactive: 0.319. In the case of “GCAGCAGUGUGGUGACUGUTT against 4933404M02Rik”, the z-score is reported as inactive: -2.21. In the case of GCCUUUUGGAAACUUGCCCTT against Bcat1, the z-score is reported as inactive: 0.102. In the case of GGUAUAGCCACAGGUACAUTT against Phxr5, the z-score is reported as inactive: 0.0664. With GGAAAUUUUUCGUAAGUUGTT against Ncor1 the z-score was inactive: -0.799. In the case of GGAAAAUGUUGAAGUGGAATT against Ndufa5, the z-score is reported as inactive: 0.54. With “GGUUACCCUUGAGAAGAACTT against 4430402O11Rik” the z-score was inactive: 0.136. For GGGAGGACCUUGUGUAUCATT against BC055811, the z-score was inactive: -0.403. In the case of GCCGUCUAAGUAUCAGAAATT against Abca14, the z-score is reported as inactive: -0.753. For CCGCAUUCCAGAGGAUAACTT against Mgst1, the z-score was inactive: -0.635. With “GCAUAUUUCCGAGGAUCAATT against 9630046K23Rik” the z-score was inactive: -0.355. In the case of GGAGCUAUAUUCUCACCCATT against Ptpn1, the z-score is reported as inactive: -0.83. In the case of GGGAGCUCUCUACGAGAUUTT against Ever2, the z-score is reported as inactive: -0.0879. With CCCAGGAGAUCCAUAUCAATT against BC023151 the z-score was inactive: 0.196. With GGAGCAUUGCCUUUUAAAGTT against Psph the z-score was inactive: 0.525. For CCUGGAUACCUUCAACUAUTT against Galnt14, the z-score was inactive: 0.715. In the case of CCUUGUAGGAAAAAAGUCCTT against Zfp109, the z-score is reported as inactive: 2.17. For GGAUUUGCUUCAACAUAGGTT against Ncf2, the z-score was inactive: -0.245. With GGAGGUAGAAAUAAAUACUTT against Sva the z-score was inactive: -2.18. With GAGGGCAUAAUGGUUUUUATT against Hist1h3c the z-score was inactive: 0.888. In the case of GGCGGUGAAGACAUUGAAATT against Stxbp2, the z-score is reported as inactive: 0.346. In the case of GCUAACCAAGCUUGUGACATT against Adat1, the z-score is reported as inactive: -1.14. In the case of “GGUAAAGACACAGAGCUGCTT against 1700051C09Rik”, the z-score is reported as inactive: 1.18. In the case of “CGUAUGAGUGCAAUACUAATT against A030012M09Rik”, the z-score is reported as inactive: 0.298. For “GCUGUUAUUCAAGGAAUUCTT against 1700024C24Rik”, the z-score was inactive: -0.681. In the case of GGGACUUUCCAGUGUAAAGTT against Npb, the z-score is reported as inactive: 0.366. In the case of CCAAUCAACCCUCUAAGCATT against Nphp4, the z-score is reported as inactive: -1.7. With GGACAAUUGUAAGGACAGATT against Slc1a6 the z-score was inactive: -1.36. For GGCAGAUGGCCGAAUUGAUTT against Rest, the z-score was inactive: -0.479. In the case of GGAACUGAUCUGGAAGAAUTT against Sdh1, the z-score is reported as inactive: 1.28. For GGAAGAUGACCUCAUCCACTT against Tslpr, the z-score was inactive: 0.45. In the case of GGAGCACAUGCUCAAAAGATT against Pccb, the z-score is reported as inactive: 1.34. In the case of GGUUGUGUAAUGAGACUGATT against Olfr914, the z-score is reported as inactive: -3.12. For CCGCAUUUCAGACAUAGGCTT against Olfr415, the z-score was inactive: 0.486. For GCAGUAUAUACCCACUCGGTT against Stk17b, the z-score was inactive: -0.117. With GGUGUGUGGUAGAAGACAATT against Lsamp the z-score was inactive: 0.17. For “UCUGGAGUCUUAUCAAGGATT against 2210020M01Rik”, the z-score was inactive: -0.752. With CCUGAAUGGACAAACAGGATT against MGC129481 the z-score was inactive: -0.0933. In the case of GGCUUGCAUAUCUAUUGGATT against Map2k6, the z-score is reported as inactive: -0.819. In the case of GCGGGACCAGGAGUAAACUTT against Pabpnl1, the z-score is reported as inactive: 2.06. With GCUACUUUACUACCAGGCCTT against Slc35e3 the z-score was inactive: 1.42. For “GGCACAGAAAUUAUGUUCUTT against 1810012H11Rik”, the z-score was inactive: -0.685. With GGAUUGUCAGAAAUCCUGATT against Deadc1 the z-score was inactive: -0.368. With GGAGCUCUUCAUCCUCAACTT against Arhgap8 the z-score was inactive: 0.0742. With GGAAUGUGUUAUGGUGAUUTT against Mgl2 the z-score was inactive: -0.346. For GCCUGAAAUCAACUCCACCTT against F2, the z-score was inactive: -0.942. For CCUUUUCCGGUUAAAGCAGTT against Hrmt1l3, the z-score was inactive: 0.824. With GGCCUAUCCAUAAUUUAUCTT against Mcm8 the z-score was inactive: 1.41. In the case of GGAUGUCACAACAGUUAUGTT against Otog, the z-score is reported as inactive: 1.4. In the case of GGGCUCACACAGAAAAAUUTT against Cd244, the z-score is reported as inactive: -1.72. For GGAUGGAGAAGUUUACUACTT against Yap1, the z-score was inactive: -2.7. With GUACUUUCUUAUUCUCCAATT against Tas2r123 the z-score was inactive: -1.89. For UCUUUGGGUAGUUUAGGUATT against Olfr1310, the z-score was inactive: -0.948. For GGUCUCAAAGAAAUCUGUATT against Bcap29, the z-score was inactive: 0.93. With GGUUACGAAGAUUAAUGUGTT against Crk the z-score was inactive: 0.0905. With GCUAGCCAAUUGUGUUUGATT against Gjb3 the z-score was inactive: -1.3. With GCCUCCAGAACUCACUGCATT against Hes3 the z-score was inactive: 0.776. In the case of “GGUUGUAAGGAACUCUUGGTT against D630002G06”, the z-score is reported as inactive: -0.0542. With CGGUGAUAGUGGAGUUUGUTT against Olfr266 the z-score was inactive: -0.501. In the case of GGUCUUCAAGAACUGUAGCTT against Bcl11b, the z-score is reported as inactive: 0.566. For CCUGUAUACUAUCACUUGUTT against Casp8, the z-score was inactive: -0.0716. For GCUAUUCAAUAUUUAUGGCTT against Zic1, the z-score was inactive: 0.414. With “GGAUGAGGAGAUAAAGUCUTT against 9130017N09Rik” the z-score was inactive: 0.314. With CGAAAAAAAUCCAAGUCAATT against Akap12 the z-score was inactive: 2.76. In the case of GGCUAUGACUCGAUUUCUATT against Msh5, the z-score is reported as inactive: -0.312. For CCUUUCGAUGAUAAUCGAATT against Olfr971, the z-score was inactive: 1.06. In the case of GGACGUAUACAUUCAAUCUTT against Ubash3a, the z-score is reported as inactive: 1.26. For CCACCUUGUUGAGUGGCACTT against Smarcd3, the z-score was inactive: 0.463. In the case of GCUGGAUUCUGGUAAAUGGTT against Eif5a, the z-score is reported as inactive: -1.29. In the case of GGGCAACAAGGAGUACUCATT against LOC260408, the z-score is reported as inactive: 2.22. For “CCGCAUAAGAGAAUCAAGGTT against 1700012B09Rik”, the z-score was inactive: 0.812. For CGCGGAAGUUUGAAGUCCUTT against Tusc1, the z-score was inactive: 1.19. With GGCAGAUCUGGAGAACCAGTT against Rras the z-score was inactive: -2.12. With GUCACUGAAUUUCUCCUCUTT against Olfr104 the z-score was inactive: -2.23. With GGAGGCUGAAAACAUCGUGTT against Sncg the z-score was inactive: 0.0624. For GGGAUUUCGCCAUUGGUGUTT against Col15a1, the z-score was inactive: 0.853. With “GGAAGAGGUUAGCAAGCAUTT against 1700069O15Rik” the z-score was inactive: 0.361. In the case of “GCAAGAAACAGCAUUGUCCTT against A930027K05Rik”, the z-score is reported as inactive: 0.661. With “CGUGGUCCUCGAUAACAAATT against 2310001H13Rik” the z-score was inactive: -0.185. With GGACUGUGAGGCCUAUGAATT against Cd72 the z-score was inactive: -2.78. For CCGACUCGUCUUUACAACUTT against Abcc6, the z-score was inactive: 0.5. In the case of CCAAACGAGAGAAAUUCAATT against Rin1, the z-score is reported as inactive: 1.15. With GGAGAUGCUGAAGGAUGAGTT against Hrmt1l2 the z-score was inactive: 2.42. For GCAAAGUACCCACCUUUGUTT against Pitpn, the z-score was inactive: 1.9. With “GCAAUUCUGACAACAGCCUTT against A530099J19Rik” the z-score was inactive: 0.209. In the case of GGACCUUGUACCCAUUCCUTT against Arhgap8, the z-score is reported as inactive: -1.45. For GGAAGAAUUGAGGAAAUAGTT against Bbx, the z-score was inactive: 0.629. In the case of “GGAAGUCCGUUUUUAAGAATT against 4732429I09Rik”, the z-score is reported as inactive: -0.792. In the case of GCUCCUAGCAGCUCUGAUGTT against Trim33, the z-score is reported as inactive: -0.0481. In the case of “GGUUCGGGAGACACCUCUUTT against A930008G19Rik”, the z-score is reported as inactive: 0.182. In the case of GGGCACCAAGAAAAGUCUCTT against Mageh1, the z-score is reported as inactive: -0.167. For GGGAGGUUCACAUCCUAAATT against Tgfbr3, the z-score was inactive: 0.817. In the case of “GGUGAUACGUAUUUUUUAGTT against 2700050F09Rik”, the z-score is reported as active: 1.03. In the case of CCUGUGCUUUUGUGCAUUATT against Clta, the z-score is reported as inactive: 0.72.
